Measurements as given in patent publication US5215979A, “16,17-acetalsubstituted pregnane 21-oic acid derivatives” (priority 1985, dated 1993).

Assay: Selectivity of left lung lobe instillation verified with Evans Blue
Assay type: in vivo, Sprague-Dawley rats
Conditions: instillation into left lung lobe

## Cc1cc(-c2ccc(/N=N/c3ccc4c(S(=O)(=O)O)cc(S(=O)(=O)O)c(N)c4c3O)c(C)c2)ccc1/N=N/c1ccc2c(S(=O)(=O)O)cc(S(=O)(=O)O)c(N)c2c1O [Evans Blue]
  Applied substance found in the left lung half: > 95%
  Applied substance found in the right lung half: < 5%
